These are yes or no findings as the source states them, for the method shown. Binding seen in cells or lysates may run through a third protein. Some results given as binding are weak or reduced against the parent protein; the word gives no strength.

Sequences of proteins named here, by UniProt entry; tags and fusion partners are left off. A change or cut given only in a name is not applied to a line headed by its entry.
UniProt Q8VE70: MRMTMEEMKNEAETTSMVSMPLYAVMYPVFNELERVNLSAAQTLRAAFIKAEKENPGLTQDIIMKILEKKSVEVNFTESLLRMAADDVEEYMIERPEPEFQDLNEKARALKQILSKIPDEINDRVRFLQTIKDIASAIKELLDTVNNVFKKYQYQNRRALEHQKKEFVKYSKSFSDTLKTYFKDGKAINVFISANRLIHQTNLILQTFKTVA
UniProt Q6S5J6: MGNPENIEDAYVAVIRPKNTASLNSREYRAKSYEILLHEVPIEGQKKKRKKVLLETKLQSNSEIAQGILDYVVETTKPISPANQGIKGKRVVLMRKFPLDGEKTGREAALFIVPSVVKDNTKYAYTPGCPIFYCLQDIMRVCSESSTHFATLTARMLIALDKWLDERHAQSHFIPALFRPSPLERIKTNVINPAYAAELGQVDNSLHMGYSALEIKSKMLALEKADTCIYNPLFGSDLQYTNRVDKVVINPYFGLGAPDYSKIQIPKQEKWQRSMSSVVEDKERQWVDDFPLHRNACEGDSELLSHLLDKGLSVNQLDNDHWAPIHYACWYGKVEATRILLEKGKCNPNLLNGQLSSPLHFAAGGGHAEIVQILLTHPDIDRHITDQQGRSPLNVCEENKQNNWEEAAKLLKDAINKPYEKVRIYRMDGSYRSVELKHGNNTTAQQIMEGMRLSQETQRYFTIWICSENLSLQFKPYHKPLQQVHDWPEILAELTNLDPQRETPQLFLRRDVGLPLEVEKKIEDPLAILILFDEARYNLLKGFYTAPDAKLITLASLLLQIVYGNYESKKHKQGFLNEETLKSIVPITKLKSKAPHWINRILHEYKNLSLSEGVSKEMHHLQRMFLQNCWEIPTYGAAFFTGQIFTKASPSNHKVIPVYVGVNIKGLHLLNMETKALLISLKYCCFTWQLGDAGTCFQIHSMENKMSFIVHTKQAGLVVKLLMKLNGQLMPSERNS
UniProt Q8K2Y9: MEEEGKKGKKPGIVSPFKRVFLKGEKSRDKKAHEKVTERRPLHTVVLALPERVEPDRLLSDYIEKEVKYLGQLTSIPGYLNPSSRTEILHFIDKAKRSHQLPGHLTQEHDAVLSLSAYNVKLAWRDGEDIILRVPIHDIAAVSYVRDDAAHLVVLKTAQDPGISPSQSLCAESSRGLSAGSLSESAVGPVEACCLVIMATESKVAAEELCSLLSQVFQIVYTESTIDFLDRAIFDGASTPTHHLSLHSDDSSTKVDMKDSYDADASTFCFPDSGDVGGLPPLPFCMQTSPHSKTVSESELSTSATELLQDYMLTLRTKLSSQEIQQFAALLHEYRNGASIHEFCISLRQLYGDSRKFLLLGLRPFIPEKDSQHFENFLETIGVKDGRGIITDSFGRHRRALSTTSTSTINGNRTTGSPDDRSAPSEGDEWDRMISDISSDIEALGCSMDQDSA

The values below come from PMC2909203.

Assay [1] addresses Recombinant murine 6xHis-PDCD10 Δ5KA mutant (K169A, K172A, K179A, K183A, K186A) (mouse) (UniProt Q8VE70). Kind of assay: pull-down; 10 µg His-tag recombinant WT or Δ5KA PDCD10 bound to CNBr-activated sepharose beads, incubated with 500 µg lysate of HEK293 cells transfected with FLAG-Krit1 and FLAG-OSM, 16 hours at 4°C, non-ionic detergent lysis buffer; immunoblot for FLAG and His; only the target purified.

Assay [2] deals with Recombinant murine 6xHis-PDCD10, wild type (mouse) (UniProt Q8VE70). The description is as above.

Consider “FLAG-tagged Krit1 (CCM1) (from UniProt Q6S5J6 1-736)”, for which the binding entry in assay [1] is recorded as “no binding”.
Take “FLAG-tagged OSM (CCM2) (from UniProt Q8K2Y9 1-453)”: the binding entry in assay [1] is given as “no binding”; in assay [2], “binds”.
